Our source for the binding values is paper PMC2605561.

By UniProt entry, the sequences of proteins in these tests, tags left out. Where a name states a change or a piece, a line headed by the entry shows the natural chain unless it says otherwise. Residues count along the entry.
UniProt Q8VI56: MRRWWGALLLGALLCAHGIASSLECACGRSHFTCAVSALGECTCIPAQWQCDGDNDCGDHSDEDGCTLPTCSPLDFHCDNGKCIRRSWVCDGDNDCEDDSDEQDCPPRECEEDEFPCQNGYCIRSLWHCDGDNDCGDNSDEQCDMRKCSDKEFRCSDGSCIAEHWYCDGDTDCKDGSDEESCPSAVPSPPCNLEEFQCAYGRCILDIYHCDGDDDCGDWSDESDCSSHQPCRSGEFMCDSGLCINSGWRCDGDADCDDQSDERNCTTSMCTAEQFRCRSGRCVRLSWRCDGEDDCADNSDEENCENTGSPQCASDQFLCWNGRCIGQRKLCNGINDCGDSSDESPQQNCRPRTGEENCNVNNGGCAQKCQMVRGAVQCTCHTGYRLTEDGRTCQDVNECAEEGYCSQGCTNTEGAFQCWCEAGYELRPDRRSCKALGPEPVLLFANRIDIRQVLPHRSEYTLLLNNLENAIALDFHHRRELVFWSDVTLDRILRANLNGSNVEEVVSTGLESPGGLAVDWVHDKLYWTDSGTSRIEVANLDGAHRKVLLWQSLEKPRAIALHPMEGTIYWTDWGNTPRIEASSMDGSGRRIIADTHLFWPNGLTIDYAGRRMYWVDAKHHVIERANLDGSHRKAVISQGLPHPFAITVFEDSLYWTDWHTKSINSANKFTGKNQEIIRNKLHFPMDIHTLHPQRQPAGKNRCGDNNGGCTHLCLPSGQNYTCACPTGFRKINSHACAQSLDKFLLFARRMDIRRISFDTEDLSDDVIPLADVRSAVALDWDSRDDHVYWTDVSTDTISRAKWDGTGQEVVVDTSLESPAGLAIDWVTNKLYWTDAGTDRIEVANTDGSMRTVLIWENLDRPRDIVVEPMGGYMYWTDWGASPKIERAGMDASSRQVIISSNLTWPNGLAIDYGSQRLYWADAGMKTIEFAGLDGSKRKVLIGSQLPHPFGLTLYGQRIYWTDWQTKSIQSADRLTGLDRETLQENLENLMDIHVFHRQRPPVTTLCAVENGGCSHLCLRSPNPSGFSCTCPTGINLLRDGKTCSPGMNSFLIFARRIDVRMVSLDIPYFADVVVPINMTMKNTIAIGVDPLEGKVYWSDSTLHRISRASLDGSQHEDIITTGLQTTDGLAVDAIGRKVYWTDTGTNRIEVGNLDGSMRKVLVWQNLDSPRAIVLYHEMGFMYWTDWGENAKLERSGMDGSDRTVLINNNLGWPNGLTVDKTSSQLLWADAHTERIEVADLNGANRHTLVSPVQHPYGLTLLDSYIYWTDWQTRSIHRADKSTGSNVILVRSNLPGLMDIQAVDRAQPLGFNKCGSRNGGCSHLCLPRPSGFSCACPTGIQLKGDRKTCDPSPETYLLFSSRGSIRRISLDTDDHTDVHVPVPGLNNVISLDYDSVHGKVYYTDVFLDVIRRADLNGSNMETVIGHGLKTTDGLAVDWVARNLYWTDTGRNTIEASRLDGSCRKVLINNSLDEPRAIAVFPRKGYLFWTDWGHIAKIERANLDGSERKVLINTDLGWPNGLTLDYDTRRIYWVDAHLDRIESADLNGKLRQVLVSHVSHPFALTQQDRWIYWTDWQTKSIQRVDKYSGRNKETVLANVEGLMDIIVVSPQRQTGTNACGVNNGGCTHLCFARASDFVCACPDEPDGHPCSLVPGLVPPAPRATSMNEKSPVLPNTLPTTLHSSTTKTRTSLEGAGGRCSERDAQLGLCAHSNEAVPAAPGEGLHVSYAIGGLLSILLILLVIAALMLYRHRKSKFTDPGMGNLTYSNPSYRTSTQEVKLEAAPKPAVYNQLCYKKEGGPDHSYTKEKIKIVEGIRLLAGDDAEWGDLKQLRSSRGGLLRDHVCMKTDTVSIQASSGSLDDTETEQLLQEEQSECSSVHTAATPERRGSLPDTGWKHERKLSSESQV
LRP4: residues 21-1905 of Q8VI56
LRP4ecto-Fc: residues 21-1725 of Q8VI56
UniProt Q8BFU0, residues 24-243: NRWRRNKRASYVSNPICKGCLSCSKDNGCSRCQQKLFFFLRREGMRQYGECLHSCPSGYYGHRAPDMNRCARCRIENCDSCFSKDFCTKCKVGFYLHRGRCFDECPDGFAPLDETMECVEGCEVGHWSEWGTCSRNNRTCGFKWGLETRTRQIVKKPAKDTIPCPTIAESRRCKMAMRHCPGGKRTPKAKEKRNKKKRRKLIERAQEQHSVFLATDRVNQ
UniProt Q9CQN4, residues 24-206: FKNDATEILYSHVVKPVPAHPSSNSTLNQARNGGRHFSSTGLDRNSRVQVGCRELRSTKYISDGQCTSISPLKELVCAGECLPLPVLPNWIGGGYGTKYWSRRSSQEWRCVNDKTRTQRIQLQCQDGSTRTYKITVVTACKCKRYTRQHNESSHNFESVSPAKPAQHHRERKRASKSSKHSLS

In experiment [1] the target is LRP4ecto-Fc (UniProt Q8VI56). Nature of the experiment: pull-down; cell-free: LRP4ecto-Fc from medium conjugated to Protein A-Agarose (4 C, 2 hrs), incubated with precleared media containing AP or AP-tagged proteins at 4 C overnight, washed three times with PBS; anti-AP western blot. A general note: In western blotting, separated proteins are transferred to a membrane and probed.

Experiment [2] addresses LRP4 (UniProt Q8VI56). Nature of the experiment: co-IP; HEK293A cells expressing LRP4 incubated in equal volumes of media containing AP or AP-tagged proteins at 37 C for 1 hr, cross-linked with dithiobis[succinimidylpropionate] at room temperature for 30 min, lysed (50 mM Tris-HCl pH 7.5, 150 mM NaCl, 1 mM MgCl2, 1 mM CaCl2, 1% Triton X-100); immunoprecipitation with anti-AP antibody and Protein A-Agarose, anti-LRP4 western blot.

Experiment [3] has as its target LRP4ecto-Fc (UniProt Q8VI56). Nature of the experiment: pull-down; cell-free: LRP4ecto-Fc from medium conjugated to Protein A-Agarose (4 C, 2 hrs), incubated with precleared media containing AP or AP-tagged proteins at 4 C overnight, washed three times with PBS; anti-AP western blot. The source holds these as a separate data set.
Experiment [4] deals with LRP4 (UniProt Q8VI56). Nature of the experiment: co-IP; HEK293A cells expressing LRP4 incubated in equal volumes of media containing AP or AP-tagged proteins at 37 C for 1 hr, cross-linked with dithiobis[succinimidylpropionate] at room temperature for 30 min, lysed (50 mM Tris-HCl pH 7.5, 150 mM NaCl, 1 mM MgCl2, 1 mM CaCl2, 1% Triton X-100); immunoprecipitation with anti-AP antibody and Protein A-Agarose, anti-LRP4 western blot. This is another data set of the same source.

Read-outs that look alike come from different tables or passages of the source. No constants are given. Whether binding was seen depends on the method and setting. In cells and extracts the contact can be indirect. Some entries that bind do so weakly or less than the wild type.

Consider “RSpondin2-AP (from UniProt Q8BFU0 24-243) (ligand)”, for which the binding result with LRP4ecto-Fc [1] and with LRP4 [2] was “no binding” in each case.

For the molecule “Wise-AP (from UniProt Q9CQN4 24-206) (ligand)”, the binding result with LRP4ecto-Fc [1] and with LRP4 [2] was “binds” each time.

B1: RAP-AP (ligand, UniProt P55302 29-360)
chain: QPIAGHGGKYSREKNEPEMAAKRESGEEFRMEKLNQLWEKAKRLHLSPVRLAELHSDLKIQERDELNWKKLKVEGLDKDGEKEAKLIHNLNVILARYGLDGRKDAQMVHSNALNEDTQDELGDPRLEKLWHKAKTSGKFSSEELDKLWREFLHYKEKIQEYNVLLDTLSRAEEGYENLLSPSDMAHIKSDTLISKHSELKDRLRSINQGLDRLRKVSHQGYGSTTEFEEPRVIDLWDLAQSANFTEKELESFREELKHFEAKIEKHNHYQKQLEISHQKLKHVESIGDPEHISRNKEKYVLLEEKTKELGYKVKKHLQDLSSRVSRARHNEL
Take B1: the binding entry with LRP4ecto-Fc [3] and with LRP4 [4] was “binds” throughout.
